Some of the results follow. Shown are side measurements of this screen, not its main read-out; they come without a call. The list favours compounds with an active or inconclusive main result. The note in brackets gives the kind of curve behind each potency; many fits are weak.

By AC50 is commonly meant the midpoint of the concentration-response curve, whichever way the signal moves. A lower AC50 goes with greater potency.

This assay in a line: qHTS Assay for Lipid Storage Modulators in Drosophila S3 Cells.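 For cell number change: cells counted by Cell Tracker Red CMTPX staining in the red channel.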 Conditions: BODIPY lipid droplet fluorescence, 18-24 h; for cell number change: measured here: cell count max response, cells fed with added oleic acid. The method, boiled down: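 Drosophila S3 cells loaded with oleic acid (400 uM, as added) and compounds at several concentrations; lipid droplets imaged by 488-nm laser-scanning cytometry, 500–530 nm intensity and object ratio to cell channel. Percent activity normalized to 20 uM Triacsin C.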
For orientation: In qHTS, concentration-response curves come from the screen itself.

The mark [1] stands for this setting: measured here: lipid fluorescence (Fed channel) AC50, cells fed with added oleic acid.
Where [2] appears, read: measured here: cell number channel AC50, cells fed with added oleic acid.

On to `N=c1c(C(=O)NC2CCCCC2)cc2c(=O)n3ccccc3nc2n1Cc1ccccc1`, for which the cell number change came out at 7.79%. The AC50 under setting [1] was 1.64 µM [rising, partial curve].
With `Cc1ccc(C)c(C(=O)COC(=O)c2ccccc2N2C(=O)C3C4CCC(C4)C3C2=O)c1` (stereo unspecified), the cell number change is -12.9%. The AC50 under setting [1] is 29.1 µM [falling, single point].
Regarding `CCCCn1c(N)c(N(CCOC)C(=O)COC(=O)COc2cccc(C(C)=O)c2)c(=O)[nH]c1=O`, the cell number change was -31.6%. For the same compound, the AC50 under setting [2] was 0.092 µM [falling, full curve].
Regarding `CC(C)CNC(=S)N1CCN(C)CC1`, the cell number change was -5.86%.
As to `Nc1cccc(-c2nc3ccc(C(=O)c4ccccc4)cc3[nH]2)c1`, the cell number change is -5.17%. In addition, under setting [1], the AC50 is 14.6 µM [falling, partial curve].
With `N#Cc1c2n(c(=S)n(-c3ccccc3)c1=O)CCCCC2`, the cell number change was -1.14%.
In the case of `N#CCCn1c(C(C#N)(CCC#N)CCC#N)nc2ccccc21`, the cell number change was -18.9%. Also, the AC50 under setting [1] is 0.651 µM [falling, full curve, poor fit].
With `Cc1ccc(S(=O)(=O)N2CCN(C(=O)CCC(=O)N3CCc4ccccc43)CC2)cc1`, the cell number change was -16.2%. The AC50 under setting [1] was 32.6 µM [falling, single point].
Take `N/C(=N/O)c1nc(N2CCCCC2)nc(N2CCCCC2)n1`: the cell number change is -27.8%. Besides, the AC50 under setting [1] was 29.1 µM [falling, single point].
Regarding `Cc1ccccc1N1C(=O)CC(N2CCC(C(N)=O)CC2)C1=O` (stereo unspecified), the cell number change is -16%. Besides, the AC50 under setting [1] was 0.0058 µM [falling, full curve, poor fit].
As to `NC(=NC1CCCCC1)c1ccc([N+](=O)[O-])cc1`, the AC50 is, setting by setting: under setting [2], 2.91 µM [falling, partial curve]; under setting [1], 1.84 µM [falling, partial curve].
Consider `O=C(CSc1nnc(-c2ccncc2)o1)Nc1nncs1`, for which the cell number change is 11.5%. Also, the AC50 under setting [1] was 6.51 µM [rising, partial curve, poor fit].
For `COc1cc(-c2cc(N)n(S(=O)(=O)c3ccccc3)n2)cc(OC)c1OC`, the cell number change is 79.8%. The AC50 under setting [2] is 6.51 µM [rising, full curve]. In addition, the AC50 under setting [1] is 3.66 µM [rising, partial curve].
Turning to `O=C(CN(C(=O)CCC(=O)Nc1ccccn1)c1ccc(F)cc1)NCCc1ccccc1`, the cell number change came to 11.3%.
In the case of `CC(C)c1ccc(-c2c(C#N)c(N)nc(SCC(=O)N3CCCCC3)c2C#N)cc1`, the cell number change came out at 16.4%. Under setting [1], the AC50 is 3.26 µM [rising, partial curve].
On to `O=C(NCCN1CCOCC1)c1ccc(Cl)cc1`, for which the cell number change was -32%. Also, under setting [2], the AC50 is 32.6 µM [falling, single point].
For the compound `COc1cc(CNCc2ccccn2)ccc1OCc1ccc(Cl)c(Cl)c1`, the cell number change was -0.678%.
`CCN1CCCC1CNC(=O)c1ccc2c(c1)N(Cc1cccc(Cl)c1)C(=O)c1ccccc1S2(=O)=O` (stereo unspecified): the cell number change was 9.35%. For the same compound, under setting [1], the AC50 was 29.1 µM [rising, single point].
For the compound `Cc1[nH]c2ccccc2c1/C=N/n1cnnc1`, the cell number change was -10.1%.
For the compound `O=C(NC(=S)Nc1ccc(S(=O)(=O)Nc2ccccc2)cc1)C1CC1`, the cell number change is -0.318%.
Turning to `Cc1cccc(C)c1NC(=O)COC(=O)c1c2c(nc3ccccc13)/C(=C\c1ccc3c(c1)OCO3)CCC2`, the cell number change was -57.4%. Moreover, under setting [2], the half-maximal activity concentration (AC50) is 32.6 µM [falling, single point]. Besides, under setting [1], the AC50 is 0.146 µM [rising, full curve, poor fit].
For `CCCS(=O)(=O)N1CCCC(C(=O)NCCN2CCCCC2C)C1` (stereo unspecified), the cell number change turned out to be 26.9%. Further, the AC50 under setting [1] was 18.4 µM [rising, single point].
For `COc1ccc2cc3cc(C(=O)NCc4cccs4)oc3nc2c1`, the cell number change was found to be 3.78%. The AC50 under setting [2] is 0.651 µM [rising, full curve, poor fit]. Further, the AC50 under setting [1] was 0.58 µM [rising, full curve].
Take `O=C(CN1C(=O)NC(Cc2ccccc2)C1=O)Nc1ccc(OC(F)(F)F)cc1` (stereo unspecified): the AC50 under setting [1] is 18.4 µM [falling, single point].
On to `COc1ccc(Nc2nc(N3CCCC3)c3ccccc3n2)cc1`, for which the cell number change is -44.3%. Also, the AC50 under setting [2] is 32.6 µM [falling, single point].
On to `CCOC(=O)c1c(C)[nH]c(C)c1S(=O)(=O)Nc1ccc(CN2CCCCC2)cc1`, for which the cell number change was -4.96%. The AC50 under setting [1] is 20.6 µM [falling, partial curve, poor fit].
Take `Cc1ccc(NC(=O)COc2cccc3ccc(C)nc23)c(Br)c1`: the cell number change came out at 4.1%.
Consider `Cc1ccc(/C=C(\C#N)C(=O)Nc2cccc3ncccc23)o1`, for which the cell number change is -44.7%. For the same compound, the AC50 under setting [2] is 20.6 µM [falling, partial curve, poor fit]. In addition, the AC50 under setting [1] is 14.6 µM [falling, partial curve].
For `COc1ccc(NC(=O)CCN2C(=O)C3CC=CCC3C2=O)cc1S(=O)(=O)N1CCCCC1` (stereo unspecified), the cell number change is -17.5%. Also, the AC50 under setting [2] was 0.291 µM [falling, full curve, poor fit].
With `CC12CCC(=O)N1C(C(=O)Nc1ccc(SC(F)F)cc1)CS2` (stereo unspecified), the cell number change was 16.7%. Also, under setting [1], the AC50 is 23.1 µM [rising, single point].
Turning to `Cc1cc(Cl)ccc1OCCCC(=O)NO`, the cell number change was -32.1%. In addition, the AC50 under setting [2] is 0.731 µM [falling, full curve]. The half-maximal activity concentration (AC50) under setting [1] was 1.3 µM [falling, full curve].
For `NS(=O)(=O)c1ccc(NC(=O)c2cc(-c3cccs3)nc3ccccc23)cc1`, the cell number change was -16%. Under setting [1], the AC50 was 13 µM [falling, partial curve, poor fit].
For `COc1ccccc1NS(=O)(=O)c1ccc2c(c1)N(C(C)=O)CC(C)S2` (stereo unspecified), the cell number change worked out at 23.6%.
`O=C(NNC(=O)c1ccccc1[N+](=O)[O-])c1ccc(NS(=O)(=O)c2cccs2)cc1`: the cell number change amounted to 1.19%. Besides, the AC50 under setting [1] was 1.46 µM [rising, full curve, poor fit].
For the compound `Cc1ccc(C(=O)N2CCc3ccccc32)cc1[N+](=O)[O-]`, the cell number change was determined as 17.5%.
As to `CN(C)S(=O)(=O)c1cccc(NC(=O)c2cccc(S(=O)(=O)N3CCc4ccccc43)c2)c1`, the cell number change was -10.8%. Also, under setting [1], the AC50 is 1.03 µM [falling, partial curve, poor fit].
For the compound `COc1ccc(NC2CCCN(C(=O)CCc3scnc3C)C2)cc1` (stereo unspecified), the cell number change was 27.2%. Besides, the AC50 under setting [1] was 3.26 µM [rising, full curve, poor fit].
On to `Cc1cc(NCC2CCCCC2)nc2ccccc12`, for which, under setting [1], the concentration at half-maximal activity (AC50) is 0.326 µM [falling, full curve, poor fit].
On to `CCOC(=O)c1nn(-c2ccccc2C)c2nc(-c3ccc(Cl)cc3)c(C#N)c(=O)n12`, for which the cell number change was 5.96%. For the same compound, under setting [2], the AC50 is 0.651 µM [falling, single point].
Regarding `N#Cc1cccc(OCC(=O)NC(=O)NCc2ccccc2)c1`, the cell number change was -0.631%. In addition, the AC50 under setting [2] is 0.58 µM [falling, single point].
Regarding `COC(=O)CC1SCCNC1=O` (stereo unspecified), the cell number change was -19.8%.
On to `CCOc1cc(/C=C2\SC(=O)N(CC(=O)Nc3ccccc3F)C2=O)cc([N+](=O)[O-])c1O`, for which the cell number change came to 0.241%. Besides, under setting [1], the AC50 is 0.731 µM [falling, full curve, poor fit].
Consider `C=CCOC(=O)C1=C(C)Nc2ncnn2C1c1cc(Br)ccc1F` (stereo unspecified), for which the cell number change was -8.88%.
`CCCc1nc(SCC(=O)Nc2ccccc2OC)c2c(=O)n(C)c(=O)n(C)c2n1`: under setting [2], the AC50 was 0.103 µM [rising, full curve, poor fit].
On to `Cc1nc2ccc(NC(=O)c3cc([N+](=O)[O-])cc([N+](=O)[O-])c3Cl)cc2s1`, for which the cell number change is -70.1%. The AC50 under setting [2] is 4.11 µM [falling, full curve]. Further, under setting [1], the AC50 was 2.91 µM [falling, full curve].
In the case of `O=C(CC1CCCCC1)N=C1SC2CS(=O)(=O)CC2N1c1ccccc1` (stereo unspecified), the cell number change is -6.46%. In addition, under setting [1], the AC50 is 0.731 µM [falling, full curve, poor fit].
Regarding `CN1CCN(C(=O)c2cn(-c3ccccc3)nc2-c2cccs2)CC1`, the cell number change is -79.6%.
The same measure, in the same setting: with `Cc1cccc(OCC(=O)Nc2cccc(O)c2)c1` the figure was 23.2%.
Turning to `Cc1ccc(C(=O)CN(C(=O)c2ccc(Cl)cc2)N2C(=O)c3ccccc3C2=O)cc1`, the cell number change turned out to be 84.8%. The AC50 under setting [2] is 23.1 µM [rising, single point].
Regarding `COc1ccc(COc2cc(-c3cccc(OC)c3)nc3ccc(N)cc23)cc1`, the cell number change was found to be 44.5%. In addition, under setting [2], the AC50 is 16.4 µM [rising, partial curve, poor fit]. Besides, under setting [1], the AC50 was 0.231 µM [rising, full curve].
On to `O=C(O)C1CC(=O)N(c2ccc(F)cc2)C1` (stereo unspecified), for which the cell number change was -19.8%. Besides, under setting [1], the AC50 was 2.91 µM [falling, full curve].
On to `COC(=O)c1cc(Br)c(=O)n(-c2ccc(C(C)=O)cc2)c1`, for which the cell number change is -34.5%. The AC50 under setting [2] was 29.1 µM [falling, single point]. Moreover, the AC50 under setting [1] is 29.1 µM [falling, single point].
In the case of `CCOc1ccc(S(=O)(=O)N2CCCC(C(=O)NCc3ccccn3)C2)cc1C` (stereo unspecified), the cell number change was determined as 3.78%. Besides, the AC50 under setting [1] is 0.116 µM [rising, full curve].
As for `CCOc1ccccc1N1CCN(CC(O)COc2ccc3c(C)cc(=O)oc3c2)CC1` (stereo unspecified), the AC50 under setting [1] was 6.51 µM [rising, single point].
As for `CCOCCC(=O)Nc1nnc(CCc2ccccc2)s1`, the cell number change is -4.56%. In addition, the AC50 under setting [1] was 29.1 µM [rising, single point].
For `COCCCNC(=O)Cc1c(C)c2c(cc(C)c3c(C(C)(C)C)coc32)oc1=O`, the cell number change is -80.4%. In addition, the AC50 under setting [2] was 20.6 µM [falling, partial curve]. For the same compound, the AC50 under setting [1] was 10.3 µM [falling, partial curve].
Turning to `CCn1c(SCC(=O)Nc2ccc(OC)c(OC)c2)nnc1-c1ccco1`, the cell number change stood at 17.8%. Besides, the AC50 under setting [2] is 0.58 µM [rising, single point]. Further, the half-maximal activity concentration (AC50) under setting [1] is 0.0291 µM [rising, full curve, poor fit].
Consider `Cc1nn(CC(=O)NCCCN2CCC(Cc3ccccc3)CC2)c(=O)c2cc(-c3ccccc3)nn12`, for which the cell number change was determined as 17.5%. Also, the AC50 under setting [1] was 2.59 µM [rising, single point].
As to `COc1ccc(-c2cc(C)no2)cc1S(=O)(=O)NCC1CCN(Cc2cc(C)ccc2C)CC1`, the cell number change was 23.4%. Also, under setting [1], the AC50 was 18.4 µM [rising, partial curve].
For `Cc1ccc(C(=O)Nc2ccc(N3CCOCC3)c3nonc23)cc1[N+](=O)[O-]`, the cell number change came to 23.9%. Under setting [1], the AC50 is 6.51 µM [falling, single point].
For the compound `COc1cccc(N2CCN(C(=O)/C=C/c3ccco3)CC2)c1`, the cell number change was determined as 35.5%. Also, the AC50 under setting [2] was 1.03 µM [rising, full curve, poor fit]. For the same compound, under setting [1], the AC50 was 23.1 µM [rising, single point].
